Laboratory results published in PubChem BioAssay AID1671190 (National Center for Advancing Translational Sciences (NCATS), 2021).
Several values for one entry are separate records, joined by “and”; a condition that tells them apart may be missing. Equal entries are not always repeated. The whole screen tested about 580,000 compounds, of which about 6,100 (1.1%) were called active. The shares of active, inactive and inconclusive entries below differ from those in the screen. The call rests on the fitted dose curve; in most records, active means well fitted inhibition curve with a large enough effect; inconclusive means small, poorly fitted or top-dose-only effect, or another doubt; inactive means no such curve, though single readings can be large or run the other way. A potency beside an inconclusive call is a rough fit, not a confirmed value. Bridge positions count the residues as written; N and C are the ends. Peptide text beside a SMILES is read from it.

By UniProt entry, the sequences of proteins in these tests, tags left out. Where a name states a change or a piece, a line headed by the entry shows the natural chain unless it says otherwise.
UniProt P18054: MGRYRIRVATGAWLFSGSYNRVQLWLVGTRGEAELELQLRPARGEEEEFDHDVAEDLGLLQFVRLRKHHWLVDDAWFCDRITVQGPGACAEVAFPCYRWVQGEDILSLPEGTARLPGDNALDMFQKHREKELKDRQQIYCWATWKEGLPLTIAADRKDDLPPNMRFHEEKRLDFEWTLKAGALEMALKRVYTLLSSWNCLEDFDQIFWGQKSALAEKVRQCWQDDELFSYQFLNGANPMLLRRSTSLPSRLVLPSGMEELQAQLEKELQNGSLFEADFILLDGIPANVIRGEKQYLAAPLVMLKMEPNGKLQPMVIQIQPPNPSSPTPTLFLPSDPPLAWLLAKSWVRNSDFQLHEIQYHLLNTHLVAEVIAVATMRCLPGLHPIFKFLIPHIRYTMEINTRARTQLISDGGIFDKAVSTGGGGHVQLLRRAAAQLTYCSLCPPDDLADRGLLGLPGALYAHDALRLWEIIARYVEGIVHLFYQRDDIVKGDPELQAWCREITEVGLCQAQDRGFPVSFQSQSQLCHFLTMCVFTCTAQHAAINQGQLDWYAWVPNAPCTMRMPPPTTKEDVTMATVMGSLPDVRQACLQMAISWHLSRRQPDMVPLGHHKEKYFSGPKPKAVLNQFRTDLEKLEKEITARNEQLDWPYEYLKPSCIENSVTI

target: Polyunsaturated fatty acid lipoxygenase ALOX12 (Homo sapiens) (UniProt P18054); test: Primary qHTS assay for inhibitors of human arachidonate 12S-lipoxygenase (ALOX12): Round 2; conditions: purified 12hLO, xylenol orange hydroperoxide absorbance; activity change, negative = inhibition: at 108 µM (top of the series) unless noted
In short: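 Purified human 12hLO at 150 nM in 25 mM Hepes, 0.01% Triton X-100, pH 7.0, preincubated 15 min at room temperature with compound. Reaction started with 40 uM arachidonic acid, 30 min at room temperature. Hydroperoxide measured by Fe-xylenol orange, 573/405 nm absorbance ratio.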
On the % scale 0 is the no-effect control and ±100 the full control effect; potency means the concentration at half of the fitted maximal effect.

| Compound | Potency | activity change, negative = inhibition |
| --- | --- | --- |
| CC(=O)NC(C)C(=O)N1CCCC1C(=O)N1CCCC1C(=O)NC(C)C(=O)NC1C(=O)NC(CC(C)C)C(=O)NC2CCCCNC(=O)CCC(C(=O)NC(Cc3ccc(O)cc3)C(=O)O)NC(=O)C3CCC(=O)OCC(NC(=O)C4CCCN4C(=O)C(Cc4c[nH]c5ccccc45)NC2=O)C(=O)NC(CC(=O)OC1C)C(=O)NC(Cc1c[nH]c2ccccc12)C(=O)N3 (stereo not drawn) (Ac-APPATLKWPSDWEEY-OH; ester 5-11, 10-13; lactam 7-14; configuration not given here) | inconclusive: 39.8 µM [inhibitor, partial curve, poor fit] |  |
| O=C(C[n+]1ccccc1)N1c2ccccc2Sc2ccccc21 | inconclusive: 50.1 µM [inhibitor, partial curve, poor fit] |  |
| Cc1cc(=O)n(CC(=O)Nc2cccc(C)c2C)c(N(C)Cc2ccccc2)n1 | inconclusive: 89.1 µM [inhibitor, single point] |  |
| CC1(c2nnc(Cc3ccccc3)o2)CC(c2cccc(Cl)c2)=NO1 (stereo not drawn) | inconclusive: 0.178 µM [inhibitor, full curve, poor fit] |  |
| Cc1ccc(CCNC(=O)c2cn(C)c3ccc(S(=O)(=O)N4CCC(C)CC4)cc3c2=O)cc1 | inconclusive: 50.1 µM [inhibitor, partial curve, poor fit] |  |
| CCCCN1C[C@H](CSC)[C@@H](CC(=O)Nc2ccc(Br)cc2)C1=O | inconclusive: 100 µM [inhibitor, single point] |  |
| CCCN(CCC)CC(O)COc1ccccc1C(=O)Nc1ccccc1 (stereo not drawn) | inconclusive: 70.8 µM [inhibitor, single point] |  |
| Cc1ccc(SCC(=O)N(C)CC(=O)Nc2cccc(F)c2)c(C)c1 | inconclusive: 56.2 µM [inhibitor, partial curve, poor fit] |  |
| NC(=O)c1cc(Cc2ccccc2)sc1NC(=O)c1cccs1 | inconclusive: 35.5 µM [inhibitor, partial curve, poor fit] |  |
| O=C(Nc1ccc2cc[nH]c2c1)C(=O)N1CCCC1 | inconclusive: 20 µM [inhibitor, full curve, poor fit] |  |
| Cc1ccc(C(=O)NC2CCCC(C)C2C)cc1S(=O)(=O)N1CCCCC1 (stereo not drawn) | inconclusive: 5.62 µM [inhibitor, full curve, poor fit] |  |
| Cc1cc2oc(=O)cc(CN3CCC(C)CC3)c2cc1O | inactive |  |
| CCCC[C@@H]1CNC(=S)N1CCc1cccc2ccccc12 | inconclusive: 44.7 µM [inhibitor, partial curve, poor fit] |  |
| CCC(=O)c1ccc(N2CCN(C(=O)c3ccccc3)CC2)c(F)c1 | inactive |  |
| CC(Sc1cc(C(N)=O)c2ccccc2n1)c1nc(C(C)(C)C)no1 (stereo not drawn) | inactive |  |
| CCN(CC)S(=O)(=O)c1ccc2[nH]cc(C(=O)NCCc3ccccc3)c(=O)c2c1 | inconclusive: 56.2 µM [inhibitor, partial curve, poor fit] and inconclusive: 35.5 µM [inhibitor, partial curve, poor fit] |  |
| COc1cc(O)c2c(=O)cc(C)oc2c1CC=C(C)C | inconclusive: 79.4 µM [inhibitor, partial curve, poor fit] |  |
| Cc1ncc2n1C(=O)N(C1CCN(Cc3ccccc3)CC1)C2 | inactive |  |
| COc1cc(C(=O)OCC(=O)c2ccc(F)cc2F)cc(Cl)c1O | inconclusive: 15.8 µM [inhibitor, partial curve, poor fit] |  |
| COc1cccc(C(NC(=O)C2CCN(CCCOc3ccccc3)CC2)c2ccccn2)c1 (stereo not drawn) | inactive |  |

| Compound | Potency | activity change, negative = inhibition |
| --- | --- | --- |
| O=S(=O)(Cc1ccccc1Cl)c1ncn[nH]1 | inconclusive: 44.7 µM [inhibitor, partial curve, poor fit] |  |
| O=C(NCCN1CCN(C(=O)c2ccc(F)cc2)CC1)c1ccc(F)cc1 |  | inconclusive: -40.4% [inhibitor] |
| COc1ccc(C(=O)NC(=S)NNC(=O)c2ccc(O)cc2)cc1[N+](=O)[O-] | inconclusive: 100 µM [inhibitor, partial curve, poor fit] |  |
| O=C(CCC(=O)OCc1ccccc1F)Nc1ccc2c(c1)oc1ccccc12 | inactive |  |
| COC(=O)C1C(=O)C2=C(CC1C)NC(C)=C(C(=O)OCc1ccc(OC)cc1)C2c1ccc(C)o1 (stereo not drawn) | inactive |  |
| C[C@@H]1CN([C@H](C)CO)C(=O)CCCn2nncc2CO[C@H]1CN(C)Cc1ccc2c(c1)OCCO2 | inactive |  |
| Fc1ccc(-[n+]2nc(Nc3ccccc3)sc2-c2cccc(Cl)c2Cl)cc1 | inconclusive: 56.2 µM [inhibitor, partial curve, poor fit] |  |
| Cc1ccccc1NS(=O)(=O)c1ccc(C(=O)NCC(c2ccco2)N(C)C)cc1 (stereo not drawn) | inactive |  |
| CCOc1ccc(-n2c(=O)c3c(C)c(C)sc3n(CC(=O)N3CCC(C)CC3)c2=O)cc1 | inconclusive: 112 µM [inhibitor, partial curve, poor fit] |  |
| CN(CC1CCCN(CCc2ccc(Cl)cc2)C1)C(=O)c1ccoc1 (stereo not drawn) | inconclusive: 50.1 µM [inhibitor, partial curve, poor fit] |  |
| COc1ccccc1OCC(=O)c1ccc2c(c1)N(C(C)C(=O)NCCc1ccccc1)C(=O)CO2 (stereo not drawn) | inconclusive: 50.1 µM [inhibitor, partial curve, poor fit] |  |
| Cc1ccc(C(=O)Nc2cccc(NC(=O)c3cccs3)c2)c(C)c1 | inconclusive: 112 µM [inhibitor, single point] |  |
| O=C(NC[C@H]1O[C@H](Cc2cc(-c3ccccc3)on2)CC[C@@H]1O)c1cnccn1 | inactive |  |
| O=C(O)CCCC(=O)Nc1ccc(S(=O)(=O)Nc2nccs2)cc1 | inconclusive: 31.6 µM [inhibitor, single point] |  |
| COc1ccc(-c2nnc(C[C@@H]3C[C@@H](C(C)C)[C@H](CNC(=O)c4ccc(F)cc4)C=C3C)o2)cc1 | inconclusive: 17.8 µM [inhibitor, full curve, poor fit] |  |
| COc1ccccc1-c1cccc([C@@H]2C[C@H]3[C@H](CON3C)CN2C(=O)CCc2ccccc2)c1 | inconclusive: 20 µM [inhibitor, partial curve, poor fit] |  |
| COc1cccc(-c2ncc(CNC(=O)[C@H]3CC[C@@H](N)C3)s2)c1 | inconclusive: 17.8 µM [inhibitor, full curve] |  |
| CC(C)C[C@H]1CN([C@@H](Cc2ccccc2)CN2CCC[C@@H]2CN2C(=O)C(=O)NC[C@@H]2Cc2ccc(O)cc2)C(=O)C(=O)N1CC1CCCCCC1 | inconclusive: 89.1 µM [inhibitor, single point] |  |
| COC(=O)c1ccc(NS(=O)(=O)c2cc(C)ccc2OC)cc1 | inactive |  |
| Cc1ccsc1C(=O)OCC(=O)N1CCN(c2ccccc2)CC1 | inconclusive: 44.7 µM [inhibitor, partial curve, poor fit] |  |

4 entries from above, ordered by length of the SMILES, largest number first:

| Compound | Potency | activity change, negative = inhibition |
| --- | --- | --- |
| CCCCN1C[C@H](CSC)[C@@H](CC(=O)Nc2ccc(Br)cc2)C1=O | inconclusive: 100 µM [inhibitor, single point] |  |
| Cc1ccc(C(=O)NC2CCCC(C)C2C)cc1S(=O)(=O)N1CCCCC1 (stereo not drawn) | inconclusive: 5.62 µM [inhibitor, full curve, poor fit] |  |
| Cc1ncc2n1C(=O)N(C1CCN(Cc3ccccc3)CC1)C2 | inactive |  |
| COc1cc(O)c2c(=O)cc(C)oc2c1CC=C(C)C | inconclusive: 79.4 µM [inhibitor, partial curve, poor fit] |  |

Remaining list, next part.

| Compound | Potency | activity change, negative = inhibition |
| --- | --- | --- |
| Cc1ccc2cc(CN(CC(C)C)C(=O)C3CCCO3)c(=O)[nH]c2c1 (stereo not drawn) | inactive |  |
| CCOC(=O)Cc1cc(=O)n2[nH]c(NCc3cccc(C)c3)nc2n1 | inconclusive: 20 µM [inhibitor, partial curve, poor fit] |  |
| S=C(NCCc1ccccc1Cl)Nc1ccc(Cl)c(Cl)c1 | inconclusive: 63.1 µM [inhibitor, partial curve, poor fit] |  |
| COC1CCN(S(=O)(=O)c2cc(C(=O)O)ccc2Cl)CC1 | inconclusive: 17.8 µM [inhibitor, full curve, poor fit] |  |
| COc1ccccc1N1CCN(C2CCN(C(=O)c3cccc(F)c3)CC2)CC1 | inconclusive: 2.24 µM [inhibitor, full curve, poor fit] |  |
| CC(=O)OCc1cnc(C)c2oc(=O)c(-c3nc(-c4ccccc4)no3)cc12 | inconclusive: 0.224 µM [inhibitor, full curve, poor fit] |  |
| O=c1cc(-c2ccccc2Cl)oc2c(Br)ccc(O)c12 | inactive |  |
| CN(C(=O)COc1ccc2c(=O)c(Oc3ccccc3)coc2c1)c1ccccc1 | inconclusive: 39.8 µM [inhibitor, partial curve, poor fit] |  |
| CN1CCN(c2nc(-c3ccc(C(C)(C)C)cc3)nc3ccccc23)CC1 | active: 31.6 µM |  |
| O=S(=O)(/N=C/c1cccs1)c1ccc(Cl)cc1 | inactive |  |
| Cc1ccc(/C=C/C(=O)NCC(C)C)cc1 | inconclusive: 44.7 µM [inhibitor, partial curve, poor fit] |  |
| CCOC(=O)C1=C(N)Oc2ccc(Br)cc2C1C(C#N)C(=O)OCC (stereo not drawn) | inconclusive: 6.85 µM [inhibitor, full curve, poor fit] |  |
| Cc1ccc2c(CN3CCN(C)CC3)cc(=O)oc2c1 | inconclusive: 28.2 µM [inhibitor, single point] |  |
| O=c1[nH]c(CN2CCc3ccccc32)nc2scc(-c3cccs3)c12 | inconclusive: 22.4 µM [inhibitor, partial curve, poor fit] |  |
| CCOc1cc(-c2c(C#N)c(N)nc3c2CCc2ccccc2-3)ccc1O | inconclusive: 79.4 µM [inhibitor, partial curve, poor fit] |  |
| Cn1c(=O)c2c(nc(N3CCCCC3)n2CCSc2nnnn2-c2ccccc2)n(C)c1=O | inconclusive: 112 µM [inhibitor, partial curve, poor fit] |  |
| Cc1cc(-c2n[nH]c(=S)n2-c2ccc(F)cc2)nn1C | inconclusive: 39.8 µM [inhibitor, partial curve, poor fit] |  |
| CCOC(=O)CCCCCC(=O)Nc1ccc2c(c1)C(=O)N([C@@H](C)CO)C[C@H](C)[C@H](CN(C)C(=O)NC(C)C)OCCCC[C@H](C)O2 | inconclusive: 35.5 µM [inhibitor, partial curve, poor fit] |  |
